From the supplement of paper PMC12578635
± gives the standard deviation of the averaged measurements. The list shows a part of the results. Single values are uncertain, as repeats are few or missing.

tested on: RAW 264.7 macrophages infected with S. aureus JE2-lux; assay: host macrophage viability (CellTiter-Fluor) relative to DMSO vehicle; higher = more viable host cells; details: 10 µM; treatment time 4 h; gentamicin 50 µg/ml

Row | SMILES | host macrophage viability [%]
1 | O=c1[nH]ncc(N/N=C\c2ccc(O)cc2)c1Cl | 123
2 | Cc1nc2ccn(Cc3ccccc3)c(=O)c2cc1C(=O)NC1CCCC1 | 125
3 | O=C(Cn1ccn(-c2ccc(Br)cc2)c(=O)c1=O)Nc1ccccc1Cl | 123
4 | COC(=O)c1ccc(C2NC(=O)NC(O)(C(F)(F)F)C2C(=O)c2ccc(F)cc2)cc1 (stereo not given) | 113
5 | O=C(Nc1ccccc1-c1ccccc1)C1CCN(c2cnccn2)CC1 | 104
6 | O=C1Nc2c(Br)cc(Br)cc2/C1=N\NC(=O)c1ccco1 | 86.6
7 | NC(=O)c1ccc(NC(=O)CSc2nc3ccccc3o2)cc1 | 103
8 | Cc1ccccc1NC(=O)Cn1cc(S(=O)(=O)c2ccc(F)cc2)c(=O)c2cc3c(cc21)OCO3 | 102
9 | COc1ccc(Nc2nnc(Cc3ccc(F)cc3)c(=O)[nH]2)cc1OC | 113
10 | Cc1cccc(NC(=O)CN2CCC3(CC2)NC(=O)c2ccccc2O3)n1 | 126
11 | O=C(CN1CCc2nc(N3CCCC3)[nH]c(=O)c2C1)Nc1cccc(F)c1 | 146
12 | COc1ccc(CC(=O)NCCc2cn3ccc(C)cc3n2)cc1 | 126
13 | Cn1c(Sc2ccc3ccccc3n2)nc2c1c(=O)[nH]c(=O)n2C | 132
14 | CC1CCN(C(=O)CSc2ccc3nnc(-c4cccc(F)c4)n3n2)CC1 | 101 ± 11
15 | C=CCc1cccc2cc(C(N)=O)/c(=N\c3ccc(OC)cc3)oc12 | 105
16 | O=C(CSc1nnc2c(n1)[nH]c1ccc(Br)cc12)NCc1ccccc1 | 121
17 | Cc1nnc(SCC(=O)NCc2ccc3c(c2)OCO3)s1 | 120
18 | Cc1ccc(NC(=S)N2CCC(NC(=O)c3cccc(F)c3)CC2)cc1C | 114
19 | CCOC(=O)c1cc(C)nc2c1c(=O)n(CC(=O)Nc1c(C)cccc1CC)c(=O)n2C | 118
20 | CN1CCc2c(sc(NC(=O)c3cc4cc([NH+]([O-])O)ccc4s3)c2C(N)=O)C1 (stereo not given) | 103
21 | CCOc1ccnc2c1c(=O)n(Cc1cccnc1)c(=O)n2C | 93.3
22 | CN(C)CCn1c(=O)c2cnc(-c3ccncc3)nc2n(C)c1=O | 93.6
23 | CCOc1ccc(-c2cc(C(=O)Oc3cccc(Br)c3)no2)cc1 | 116
24 | CCN1C(=O)/C(=C2\SC(=S)NC2=O)c2cc(Br)ccc21 | 102
25 | N#Cc1ccc(CSc2cnc3ccccc3n2)cc1 | 130
26 | CCOc1ccc(C2CC(=O)Nc3c2cnn3-c2ccc3nncn3n2)cc1OC (stereo not given) | 115
27 | CC(C(=O)NCCn1nc(-c2cccs2)oc1=O)c1ccccc1 (stereo not given) | 134

Row | SMILES | host macrophage viability [%]
28 | C=CCOc1ccccc1NC(=O)Cn1cnc2sc(C)cc2c1=O | 97.8
29 | O=C(Nn1cnc2c(cnn2-c2ccccc2)c1=O)c1cc2ccccc2o1 | 121
30 | CN1CCCc2cc(C(CNC(=O)c3ccc4c(c3)OCO4)N3CCCCC3)ccc21 (stereo not given) | 106
31 | CCCc1cc(=O)[nH]c2nnc(SCC(=O)Nc3nc4ccccc4s3)n12 | 114
32 | N#C/C(=C\c1c(Oc2ccccc2F)nc2ccccn2c1=O)C(N)=O | 123
33 | O=C(c1cc(-c2ccc3c(c2)OCCO3)on1)N(c1ccccc1)c1ccccc1 | 119
34 | O=C(CSc1nnc(-c2cccnc2)n1-n1cccc1)Nc1ccc(Cl)c(C(F)(F)F)c1 | 118
35 | Cc1cccc(-n2c(SCC(=O)NNC(=O)c3ccco3)nnc2-c2cccnc2)c1C | 118
36 | Cc1ccc(-n2nnc(C(=O)NCc3ccc(Cl)cc3)c2-n2cccc2)cc1 | 120
37 | CS(=O)(=O)Nc1nc2ccc(NC(=O)c3n[nH]c4c3CCCC4)cc2s1 | 91.9
38 | Cc1ccc(/C=C2\SC(=S)N(NC(=O)c3ccccc3Br)C2=O)o1 | 110 ± 25
39 | COc1ccc(-c2cccc(NS(=O)(=O)c3cccc([N+](=O)[O-])c3)c2)nn1 | 125
40 | COc1cccc(C(c2sc3ncnn3c2O)N2CC(C)CC(C)C2)c1 (stereo not given) | 115
41 | COCCCNC(=O)C1CCN(c2ncnc3onc(-c4ccc(C)cc4)c23)CC1 | 112
42 | O=C(Nc1ccc(-c2nc3cccnc3s2)cc1)c1ccc(Br)o1 | 140 ± 17
43 | O=C(O)/C=C/c1ccc2c(-c3ccccc3)onc2c1 | 89.1
44 | Cc1cc(Cl)cc2sc(NC(=O)CN3C(=O)CCC3=O)nc12 | 111
45 | O=C(CSc1nc(O)c2nc[nH]c2n1)N1CCCC1 | 107
46 | O=C(OC(C(=O)NC1CCCCC1)c1ccc2ncccc2c1)c1cccs1 (stereo not given) | 113
47 | COc1ccc(C(=O)Nc2sc(Cc3ccc4c(c3)OCO4)c(C)c2C#N)cc1 | 147
48 | Cc1cc2cc(CNC(=O)c3ccc([N+](=O)[O-])cc3)ccc2[nH]1 | 114 ± 16
49 | Cc1ccc(-c2ccc(/C=C3\SC(=S)N(CC(=O)O)C3=O)o2)cc1 | 129
50 | CCN(CC)c1ccc(C2C3=C(CCCC3=O)Nc3[nH]c(=O)[nH]c(=O)c32)cc1 (stereo not given) | 116
51 | Cc1ccc(S(=O)(=O)c2nnn3c2nc(NCc2ccc(Cl)cc2)c2ccccc23)c(C)c1 | 136
52 | COc1ccc(CN(Cc2cc3ccc(C)c(C)c3nc2Cl)C(=O)C2CC2)cc1 | 115
53 | O=C(COc1ccccc1)N1CCC[C@@H]1Cn1nc(-c2cccs2)ccc1=O | 90.4
54 | COC(=O)c1c(NC(=O)CCc2ccc(C)o2)sc2c1CCCC2 | 106

Row | SMILES | host macrophage viability [%]
55 | Cc1cc(C)cc(NC(=O)CN2C(=O)C3(SCC(=O)N3c3ccc(F)cc3)c3ccccc32)c1 (stereo not given) | 125
56 | COc1cccc(C(=O)Nn2c(C3CCC3)nc3ccccc3c2=O)c1 | 122
57 | Cc1ccc(NS(=O)(=O)c2ccc(Cl)cc2)c(-c2nc3ccccc3[nH]c2=O)c1 | 118
58 | N#Cc1c(N)c(C(=O)c2ccc(Cl)cc2)n2ccccc12 | 113
59 | COc1ccccc1NCN1C(=O)C(=O)c2ccccc21 | 114
60 | COc1cccc(N(C(=O)c2cccs2)C(C(=O)NC2CCCCC2)c2ccc3ncccc3c2)c1 (stereo not given) | 120
61 | CCOc1ccc(-c2nc(SCC(=O)NCCC(C)C)n3[nH]c(=O)cc3n2)cc1 | 138
62 | Cc1ccc(CN2CCC(CNC(=O)c3cn[nH]c3C3CCNCC3)CC2)cc1 | 114
63 | CCc1cccc(CC)c1NC(=O)c1cncc(Br)c1 | 123
64 | O=C(CSc1nc2[nH]ncc2c(=O)n1-c1ccccc1Br)NCc1ccco1 | 102 ± 13
65 | CC1=NNC(=O)/C1=N\Nc1ccc(S(=O)(=O)Nc2nc(C)cc(C)n2)cc1 | 106
66 | Cc1ccccc1-c1nc(Cn2c(=O)c3cccnc3n(-c3ccccc3)c2=O)c(C)o1 | 118
67 | Cn1c(NC(=O)COc2ccccc2)cc(=O)n(C)c1=O | 124
68 | O=C1NC2=C(C(=O)N(Cc3ccc(F)cc3)C2)C(c2ccc([N+](=O)[O-])cc2)N1 (stereo not given) | 108
69 | NC(=O)C1CCN(C(=O)NCc2noc3ccccc23)CC1 | 119
70 | COC(=O)C1=C(C)Nc2nc(SCc3ccccc3)[nH]c(=O)c2C1c1cccc(F)c1 (stereo not given) | 117
71 | Cn1c(=O)[nH]c(=O)c2c1nc(SCc1ccccc1Cl)n2CCc1ccccc1 | 105
72 | COc1ccc(C(=O)N2CCOC2CNC(=O)C(=O)NCc2ccccc2)cc1 (stereo not given) | 109
73 | COc1cc(/C=C\C(=O)NCCc2cc3cc(C)c(C)cc3[nH]c2=O)cc(OC)c1OC | 102
74 | CC(=O)N(C(C)=O)c1ncnc2sc3c(c12)CCCC3 | 77.8
75 | COc1ccc(NC(=O)N2CCC(n3cnc4cc(C(F)(F)F)ccc43)CC2)cc1 | 110
76 | Cc1cc(C)c2nc(NC(=O)Nc3cccc(Cl)c3)sc2c1 | 115
77 | COc1cc(NC(=O)Cn2ncn3nc4c(c3c2=O)CCCC4)cc(OC)c1 | 119
78 | O=C(Nc1ccc(OC(F)(F)F)cc1)c1ccc2nc[nH]c2c1 | 133
79 | Cc1sc(NC(=O)c2cc3cc([N+](=O)[O-])ccc3s2)c(C#N)c1C | 109
80 | O=C(Nc1ccc2[nH]cnc2c1)c1ccc2nccnc2c1 | 109
81 | O=C1c2ccccc2-c2c(Nc3ccccc3)c(=O)[nH]c3cccc1c23 | 113

Row | SMILES | host macrophage viability [%]
82 | COc1ccc(C(=O)/C=C2\C(=O)Nc3ccccc32)cc1 | 93.9
83 | Cc1oc2c(c1C(=O)O)C(=O)c1ccccc1C2=O | 124
84 | CCOC(=O)C(C)Sc1ncnc2c1nnn2Cc1ccc(F)cc1 (stereo not given) | 110 ± 4.6
85 | COc1cccc(NC(=O)N2CCC(NC(=O)c3ccc(F)cc3)CC2)c1 | 108
86 | O=C(NCc1nnnn1-c1ccccc1)c1cc(=O)c2ccccc2o1 | 113
87 | Cn1c(=O)c2nc(SCC(=O)c3ccc(Cl)c(Cl)c3)[nH]c2n(C)c1=O | 131
88 | Cc1oc2ncnc(OCC(=O)Nc3cccc(Cl)c3C)c2c1C | 116
89 | CCCC(=O)Nc1sc(Nc2ccc(C)cc2)nc1C(N)=O | 88.1
90 | COc1ccc(C(CNc2nn3cnnc3c3ccccc23)N2CCOCC2)cc1 (stereo not given) | 96.6
91 | O=C(Cc1cc(=O)[nH]c(=O)[nH]1)NCCN1CCOCC1 | 111
92 | COCCCNC(=O)NC(c1ccccc1)c1nnc(-c2ccc(Cl)cc2)o1 (stereo not given) | 103
93 | O=C(O)C(Sc1nncc(-c2ccccc2)n1)c1ccccc1 (stereo not given) | 103
94 | Nc1ncnc(Nc2cc(C(F)(F)F)ccc2Cl)c1[N+](=O)[O-] | 106
95 | COC(=O)c1ccc(C(=O)Nc2nc3c(cc4c5c(cccc53)CC4)s2)cc1 | 117 ± 20
96 | CN1C(=O)c2cccc(NC(=O)c3cc4c(ccc5ccccc54)oc3=O)c2C1=O | 113
97 | CC(NC(=O)CC1CCN(C(=O)c2cc3cc(Cl)ccc3[nH]2)CC1)c1ccccc1 (stereo not given) | 89.5
98 | CCn1nc(C)c2ccnc(N3CCC(C(=O)Nc4cc(Cl)c(OC)cc4OC)CC3)c21 | 134
99 | Cc1noc(C)c1CCC(=O)N1CCC[C@@H](CNC(=O)c2ccco2)C1 | 121
100 | Cc1ccc(COc2cccc3c2CCNC3=O)cc1 | 117
101 | CC1(C)CC(=O)C2=C(C1)Nc1ccccc1N(CC(=O)NCc1ccncc1)C2c1ccco1 (stereo not given) | 130
102 | CCOc1ccc(NC(=S)NNc2nc(N3CCCC3)nc(N3CCCC3)n2)cc1 | 110
103 | Cn1c(=O)c(-c2noc(C(=O)N3CCC(N4CCCCC4)CC3)n2)nn(-c2ccc(F)cc2)c1=O | 105
104 | Cc1ccc(C)c(COc2coc(CSc3nncn3C)cc2=O)c1 | 122
105 | O=C(CSCc1ccccc1)Nc1nc2c(s1)COc1ccccc1-2 | 95.8

Reprinted from the listing (5 entries):
Row | SMILES | host macrophage viability [%]
29 | O=C(Nn1cnc2c(cnn2-c2ccccc2)c1=O)c1cc2ccccc2o1 | 121
30 | CN1CCCc2cc(C(CNC(=O)c3ccc4c(c3)OCO4)N3CCCCC3)ccc21 (stereo not given) | 106
31 | CCCc1cc(=O)[nH]c2nnc(SCC(=O)Nc3nc4ccccc4s3)n12 | 114
32 | N#C/C(=C\c1c(Oc2ccccc2F)nc2ccccn2c1=O)C(N)=O | 123
33 | O=C(c1cc(-c2ccc3c(c2)OCCO3)on1)N(c1ccccc1)c1ccccc1 | 119
